The record followed here is patent US5880258A (dated 1999).

Strings that start with PEPTIDE1 are HELM notation: dots part the residues, brackets hold end groups and non-standard residues.

This data set can be described thus: general procedure: Boc solid-phase peptide synthesis; Boc-Gln-OCH2-PAM resin; symmetrical anhydride method. The following applies: whole synthesis, HPLC (Waters u-Bondapak C18, 3.9x150 mm).

With “PEPTIDE1{G.D.F.E.E.I.P.E.Y.Y.L.Q}$$$$V2.0”, the “final HPLC purity” value was “over 99%”.
Regarding “PEPTIDE1{G.D.F.E.E.I.P.Y.Y.Y.L.Q}$$$$V2.0”, the “final HPLC purity” value is given as “over 99%”.
